The source of these data is patent US11766470B2 (VectivBio AG, priority 2020, dated 2023).

Square brackets hold non-standard residues; d marks the D form. Ends that are not written are not given here. Nle = CCCC[C@H](N)C(=O)O

This series in a line: general procedure: Fmoc solid-phase peptide synthesis; Fmoc-Rink-amide-MBHA resin; DIC/oxyma. To be noted: whole synthesis, sodium salt.

As to “HGDGSFSDE[Nle][dF]TILDLLAARDFINWLIQTKITD-NH2”, the difficulty met entry is given as “variability in levels of D-His impurity between 0.3%-1.2%, sometimes with incomplete coupling”. Moreover, the “final purity (method not given)” value (RP-HPLC) is given as “no less than 97%”. The “final HPLC purity” value (RP-HPLC, run 1) is at least 97%. The “final HPLC purity” value (RP-HPLC, run 2) was “no less than 95%”. For the same substance, the isolated yield (run 1) is reported as 15% to 22%. Also, the isolated yield result (run 2) was “about 20%”. Also, the isolated yield entry (run 3) is listed as “about 22%”.
